No constants are given. Whether binding was seen depends on the method and setting. Some entries that bind do so weakly or less than the wild type. Where a sequence is shown, tags or fusion partners need not be part of it.

From patent US20170362329A1 (PELICAN THERAPEUTICS, published 2017) come the findings set out here.

The target of assay [1] is T1, human TNFRSF25-Fc (human, UniProt Q93038 25-199, limits assumed).
T1 construct: also called human TNFRSF25 fusion protein; not shown: Fc part
T1 sequence (looked up): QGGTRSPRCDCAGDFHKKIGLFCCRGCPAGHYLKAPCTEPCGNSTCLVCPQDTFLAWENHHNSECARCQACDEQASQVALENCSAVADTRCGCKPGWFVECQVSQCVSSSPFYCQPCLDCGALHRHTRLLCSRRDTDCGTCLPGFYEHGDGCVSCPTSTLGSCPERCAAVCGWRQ
Kind of assay: ELISA, binding of PTX-25 to human TNFRSF25-Fc, OD 450 nm.

The target of assay [2] is T1, human TNFRSF25-Fc. Kind of assay: ELISA. In general terms: An ELISA detects its analyte on a solid surface through an enzyme-linked reagent.

B1: PTX-25 (human TNFRSF25-specific monoclonal antibody, pre-humanized parental) (antibody, V domains shown)
VH: EVQLVESGGGLSQPGNSLQLSCEASGFTFSNHDLNWVRQAPGKGLEWVAYISSASGLISYADAVRGRFTISRDNAKNSLFLQMNNLKSEDTAMYYCARDPPYSGLYALDFWGQGTQVTVSS
VL: QPVLTQSPSASASLSGSVKLTCTLSSELSSYTIVWYQQRPDKAPKYVMYLKSDGSHSKGDGIPDRFSGSSSGAHRYLSISNVQSEDDATYFCGAGYTLAGQYGWVFGSGTKVTVL
notes: also called Pre-humanized Parental PTX-25; human TNFRSF25-specific mAb
For B1, the binding entry in the assay with human TNFRSF25-Fc [1] and in the assay with human TNFRSF25-Fc [2] was “binds” throughout.
